These results are taken from paper PMC4519132.

The chains behind the UniProt entries cited, without tags or fusion partners.
UniProt Q9VW47: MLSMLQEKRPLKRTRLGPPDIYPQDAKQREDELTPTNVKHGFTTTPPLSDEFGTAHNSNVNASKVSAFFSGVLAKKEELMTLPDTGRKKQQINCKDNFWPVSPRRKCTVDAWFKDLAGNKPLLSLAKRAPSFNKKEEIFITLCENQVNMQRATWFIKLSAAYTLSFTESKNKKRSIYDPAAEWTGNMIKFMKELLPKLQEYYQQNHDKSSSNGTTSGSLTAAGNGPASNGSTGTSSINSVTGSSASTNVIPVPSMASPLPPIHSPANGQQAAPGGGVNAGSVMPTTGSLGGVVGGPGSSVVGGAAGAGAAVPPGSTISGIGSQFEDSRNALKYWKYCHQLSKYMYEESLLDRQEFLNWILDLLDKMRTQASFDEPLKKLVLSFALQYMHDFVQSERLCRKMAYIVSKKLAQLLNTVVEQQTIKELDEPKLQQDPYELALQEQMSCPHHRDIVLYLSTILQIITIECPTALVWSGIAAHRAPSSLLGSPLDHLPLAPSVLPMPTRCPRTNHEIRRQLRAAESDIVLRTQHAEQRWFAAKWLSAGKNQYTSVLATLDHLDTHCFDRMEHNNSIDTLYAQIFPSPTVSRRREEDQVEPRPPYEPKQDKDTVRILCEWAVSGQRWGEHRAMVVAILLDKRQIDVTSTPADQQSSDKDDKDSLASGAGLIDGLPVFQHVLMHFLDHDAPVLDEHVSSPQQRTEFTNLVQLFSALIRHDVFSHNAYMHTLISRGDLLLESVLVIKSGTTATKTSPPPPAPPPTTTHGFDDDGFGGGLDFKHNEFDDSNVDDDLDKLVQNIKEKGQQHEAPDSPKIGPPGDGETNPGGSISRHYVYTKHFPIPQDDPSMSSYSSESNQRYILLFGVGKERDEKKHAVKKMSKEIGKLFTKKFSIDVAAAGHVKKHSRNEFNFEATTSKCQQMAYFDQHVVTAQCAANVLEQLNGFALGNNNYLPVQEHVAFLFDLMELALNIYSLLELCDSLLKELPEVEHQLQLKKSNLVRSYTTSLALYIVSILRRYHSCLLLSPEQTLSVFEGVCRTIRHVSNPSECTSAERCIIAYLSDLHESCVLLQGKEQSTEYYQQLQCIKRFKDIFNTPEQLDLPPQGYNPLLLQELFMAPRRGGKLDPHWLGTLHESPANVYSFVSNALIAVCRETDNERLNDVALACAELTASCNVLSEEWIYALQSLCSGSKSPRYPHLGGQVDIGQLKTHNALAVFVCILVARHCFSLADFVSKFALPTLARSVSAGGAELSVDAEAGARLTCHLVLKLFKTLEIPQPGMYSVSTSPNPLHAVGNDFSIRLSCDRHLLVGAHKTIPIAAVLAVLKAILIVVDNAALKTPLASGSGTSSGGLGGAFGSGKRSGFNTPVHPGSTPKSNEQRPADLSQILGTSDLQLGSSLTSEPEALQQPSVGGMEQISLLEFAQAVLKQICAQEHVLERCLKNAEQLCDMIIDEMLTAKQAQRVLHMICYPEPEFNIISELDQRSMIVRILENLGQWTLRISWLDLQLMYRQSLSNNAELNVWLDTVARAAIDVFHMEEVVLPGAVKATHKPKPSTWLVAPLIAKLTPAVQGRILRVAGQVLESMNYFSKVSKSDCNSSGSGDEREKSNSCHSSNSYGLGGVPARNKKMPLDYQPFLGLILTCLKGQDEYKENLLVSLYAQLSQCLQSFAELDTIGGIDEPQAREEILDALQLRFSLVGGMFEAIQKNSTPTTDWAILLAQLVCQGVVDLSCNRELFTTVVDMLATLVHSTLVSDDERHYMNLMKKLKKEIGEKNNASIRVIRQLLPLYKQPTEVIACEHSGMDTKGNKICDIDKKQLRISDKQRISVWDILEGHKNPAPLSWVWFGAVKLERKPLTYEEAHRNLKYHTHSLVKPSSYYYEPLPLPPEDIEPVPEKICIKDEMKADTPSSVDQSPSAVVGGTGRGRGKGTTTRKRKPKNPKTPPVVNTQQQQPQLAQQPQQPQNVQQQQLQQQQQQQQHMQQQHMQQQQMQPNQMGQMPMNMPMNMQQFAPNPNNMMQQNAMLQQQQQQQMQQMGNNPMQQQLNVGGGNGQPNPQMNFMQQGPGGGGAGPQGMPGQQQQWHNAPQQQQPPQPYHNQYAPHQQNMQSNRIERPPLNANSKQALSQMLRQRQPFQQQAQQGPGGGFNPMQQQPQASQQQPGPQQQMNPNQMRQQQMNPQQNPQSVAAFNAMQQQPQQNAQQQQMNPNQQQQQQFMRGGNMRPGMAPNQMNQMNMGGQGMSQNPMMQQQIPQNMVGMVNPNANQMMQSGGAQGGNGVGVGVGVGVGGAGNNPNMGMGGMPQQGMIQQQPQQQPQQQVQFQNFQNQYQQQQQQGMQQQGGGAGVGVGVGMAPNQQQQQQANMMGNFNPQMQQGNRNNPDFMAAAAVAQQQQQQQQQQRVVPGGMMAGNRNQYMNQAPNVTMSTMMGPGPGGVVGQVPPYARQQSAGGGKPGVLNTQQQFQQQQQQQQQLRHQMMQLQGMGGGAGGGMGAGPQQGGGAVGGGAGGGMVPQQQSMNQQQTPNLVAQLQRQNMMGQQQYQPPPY
UniProt Q7KTX8: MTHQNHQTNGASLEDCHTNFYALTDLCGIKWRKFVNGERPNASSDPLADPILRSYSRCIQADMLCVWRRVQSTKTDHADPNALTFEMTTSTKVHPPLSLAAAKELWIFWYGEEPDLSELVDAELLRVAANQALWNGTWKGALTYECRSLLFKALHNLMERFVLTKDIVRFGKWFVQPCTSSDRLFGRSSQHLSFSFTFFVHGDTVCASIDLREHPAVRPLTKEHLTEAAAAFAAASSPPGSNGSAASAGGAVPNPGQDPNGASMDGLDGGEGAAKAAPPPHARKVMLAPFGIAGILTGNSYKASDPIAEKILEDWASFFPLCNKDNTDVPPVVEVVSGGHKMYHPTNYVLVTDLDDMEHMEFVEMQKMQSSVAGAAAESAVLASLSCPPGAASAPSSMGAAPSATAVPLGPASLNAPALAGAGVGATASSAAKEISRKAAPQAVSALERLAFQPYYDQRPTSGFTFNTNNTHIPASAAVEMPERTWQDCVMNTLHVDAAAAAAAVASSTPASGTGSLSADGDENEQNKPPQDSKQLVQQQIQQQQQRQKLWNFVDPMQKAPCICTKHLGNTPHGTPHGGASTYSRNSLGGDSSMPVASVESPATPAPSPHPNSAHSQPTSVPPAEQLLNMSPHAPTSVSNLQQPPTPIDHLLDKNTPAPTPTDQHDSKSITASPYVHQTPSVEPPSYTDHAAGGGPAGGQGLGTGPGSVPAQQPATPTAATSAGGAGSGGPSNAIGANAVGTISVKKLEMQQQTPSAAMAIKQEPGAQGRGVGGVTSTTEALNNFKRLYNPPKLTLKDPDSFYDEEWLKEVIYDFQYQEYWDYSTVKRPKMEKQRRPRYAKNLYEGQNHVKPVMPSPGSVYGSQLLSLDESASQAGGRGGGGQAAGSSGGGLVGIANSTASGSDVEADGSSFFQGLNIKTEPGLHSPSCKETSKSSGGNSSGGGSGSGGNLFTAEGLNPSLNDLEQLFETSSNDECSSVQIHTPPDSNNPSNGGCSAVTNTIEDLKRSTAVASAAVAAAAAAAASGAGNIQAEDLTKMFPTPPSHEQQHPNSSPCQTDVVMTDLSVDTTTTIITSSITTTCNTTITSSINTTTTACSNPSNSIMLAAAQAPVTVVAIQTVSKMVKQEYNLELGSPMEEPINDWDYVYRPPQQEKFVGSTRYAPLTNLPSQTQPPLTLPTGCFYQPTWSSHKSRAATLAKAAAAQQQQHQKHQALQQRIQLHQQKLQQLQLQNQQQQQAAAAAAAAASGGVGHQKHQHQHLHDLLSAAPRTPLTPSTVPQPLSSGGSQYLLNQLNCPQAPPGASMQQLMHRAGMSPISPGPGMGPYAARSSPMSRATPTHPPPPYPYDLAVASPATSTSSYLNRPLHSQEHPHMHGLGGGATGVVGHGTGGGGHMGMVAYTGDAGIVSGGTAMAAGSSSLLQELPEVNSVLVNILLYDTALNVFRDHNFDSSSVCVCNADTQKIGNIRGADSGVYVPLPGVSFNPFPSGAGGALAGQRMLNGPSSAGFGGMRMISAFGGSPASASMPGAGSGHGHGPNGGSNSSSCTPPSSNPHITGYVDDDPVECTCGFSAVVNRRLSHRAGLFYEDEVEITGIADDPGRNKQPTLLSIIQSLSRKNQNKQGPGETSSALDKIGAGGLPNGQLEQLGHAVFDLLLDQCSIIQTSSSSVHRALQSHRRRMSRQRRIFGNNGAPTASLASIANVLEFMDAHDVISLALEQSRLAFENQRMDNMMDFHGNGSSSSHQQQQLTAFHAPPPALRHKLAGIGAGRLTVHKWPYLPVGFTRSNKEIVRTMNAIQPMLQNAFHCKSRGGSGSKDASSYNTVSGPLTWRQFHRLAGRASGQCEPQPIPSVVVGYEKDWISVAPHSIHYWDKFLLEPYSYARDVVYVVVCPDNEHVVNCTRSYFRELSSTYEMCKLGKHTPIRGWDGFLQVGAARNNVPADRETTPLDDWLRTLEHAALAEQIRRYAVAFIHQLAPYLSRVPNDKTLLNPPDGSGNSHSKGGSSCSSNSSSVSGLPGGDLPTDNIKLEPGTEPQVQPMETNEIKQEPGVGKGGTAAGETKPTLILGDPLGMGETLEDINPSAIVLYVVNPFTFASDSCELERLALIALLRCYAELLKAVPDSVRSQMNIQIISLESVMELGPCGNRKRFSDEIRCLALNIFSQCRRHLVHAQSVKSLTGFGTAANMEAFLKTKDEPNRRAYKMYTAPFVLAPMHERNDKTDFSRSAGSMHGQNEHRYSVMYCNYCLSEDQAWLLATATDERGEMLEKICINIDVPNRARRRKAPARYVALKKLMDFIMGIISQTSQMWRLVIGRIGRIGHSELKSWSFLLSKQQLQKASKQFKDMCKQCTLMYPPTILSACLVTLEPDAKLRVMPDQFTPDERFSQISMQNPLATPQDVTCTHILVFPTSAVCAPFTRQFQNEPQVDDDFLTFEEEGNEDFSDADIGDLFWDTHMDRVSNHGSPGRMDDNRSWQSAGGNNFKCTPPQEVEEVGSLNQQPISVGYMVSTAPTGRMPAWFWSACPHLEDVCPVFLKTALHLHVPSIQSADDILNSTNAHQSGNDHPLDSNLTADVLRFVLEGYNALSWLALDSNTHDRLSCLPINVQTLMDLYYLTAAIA
UniProt Q9VT57: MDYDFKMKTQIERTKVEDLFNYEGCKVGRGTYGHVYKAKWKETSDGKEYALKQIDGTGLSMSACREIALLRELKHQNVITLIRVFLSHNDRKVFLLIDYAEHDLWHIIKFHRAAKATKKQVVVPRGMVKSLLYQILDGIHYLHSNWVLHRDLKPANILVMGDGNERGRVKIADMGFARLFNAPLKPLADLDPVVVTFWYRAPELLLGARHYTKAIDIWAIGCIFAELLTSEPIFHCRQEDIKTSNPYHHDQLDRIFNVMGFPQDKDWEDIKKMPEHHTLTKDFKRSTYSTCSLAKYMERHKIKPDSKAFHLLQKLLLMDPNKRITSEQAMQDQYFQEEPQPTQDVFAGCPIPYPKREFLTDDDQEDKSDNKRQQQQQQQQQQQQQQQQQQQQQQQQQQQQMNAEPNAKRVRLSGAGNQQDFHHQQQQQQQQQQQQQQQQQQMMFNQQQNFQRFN

Test [1] concerns the target T1, Ultraspiracle (USP) (Drosophila melanogaster (endogenous in white prepupae)) (UniProt P20153).
T1 sequence: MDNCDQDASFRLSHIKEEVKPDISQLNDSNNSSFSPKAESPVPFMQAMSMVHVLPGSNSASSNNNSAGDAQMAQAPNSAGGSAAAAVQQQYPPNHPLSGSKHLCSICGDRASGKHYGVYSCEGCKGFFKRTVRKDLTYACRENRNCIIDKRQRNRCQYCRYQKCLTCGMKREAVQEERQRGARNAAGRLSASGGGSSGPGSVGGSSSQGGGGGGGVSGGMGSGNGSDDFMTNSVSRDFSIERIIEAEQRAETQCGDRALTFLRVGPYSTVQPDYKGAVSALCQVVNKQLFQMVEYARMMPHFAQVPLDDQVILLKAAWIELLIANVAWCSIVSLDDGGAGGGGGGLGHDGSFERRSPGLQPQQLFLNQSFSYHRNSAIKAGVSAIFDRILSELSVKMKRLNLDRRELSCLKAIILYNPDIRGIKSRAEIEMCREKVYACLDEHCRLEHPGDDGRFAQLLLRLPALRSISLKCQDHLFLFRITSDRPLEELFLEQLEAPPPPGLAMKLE
Kind of test: affinity purification with mass spectrometry; immunoprecipitates of EcR or USP from wild-type white prepupae; gel plug, trypsin, nano LC-MS/MS; two biological replicates combined.

For test [2], the target named is T2, Ecdysone Receptor, isoform B1 (EcR-B1) (Drosophila melanogaster (endogenous in white prepupae)) (UniProt P34021).
T2 sequence: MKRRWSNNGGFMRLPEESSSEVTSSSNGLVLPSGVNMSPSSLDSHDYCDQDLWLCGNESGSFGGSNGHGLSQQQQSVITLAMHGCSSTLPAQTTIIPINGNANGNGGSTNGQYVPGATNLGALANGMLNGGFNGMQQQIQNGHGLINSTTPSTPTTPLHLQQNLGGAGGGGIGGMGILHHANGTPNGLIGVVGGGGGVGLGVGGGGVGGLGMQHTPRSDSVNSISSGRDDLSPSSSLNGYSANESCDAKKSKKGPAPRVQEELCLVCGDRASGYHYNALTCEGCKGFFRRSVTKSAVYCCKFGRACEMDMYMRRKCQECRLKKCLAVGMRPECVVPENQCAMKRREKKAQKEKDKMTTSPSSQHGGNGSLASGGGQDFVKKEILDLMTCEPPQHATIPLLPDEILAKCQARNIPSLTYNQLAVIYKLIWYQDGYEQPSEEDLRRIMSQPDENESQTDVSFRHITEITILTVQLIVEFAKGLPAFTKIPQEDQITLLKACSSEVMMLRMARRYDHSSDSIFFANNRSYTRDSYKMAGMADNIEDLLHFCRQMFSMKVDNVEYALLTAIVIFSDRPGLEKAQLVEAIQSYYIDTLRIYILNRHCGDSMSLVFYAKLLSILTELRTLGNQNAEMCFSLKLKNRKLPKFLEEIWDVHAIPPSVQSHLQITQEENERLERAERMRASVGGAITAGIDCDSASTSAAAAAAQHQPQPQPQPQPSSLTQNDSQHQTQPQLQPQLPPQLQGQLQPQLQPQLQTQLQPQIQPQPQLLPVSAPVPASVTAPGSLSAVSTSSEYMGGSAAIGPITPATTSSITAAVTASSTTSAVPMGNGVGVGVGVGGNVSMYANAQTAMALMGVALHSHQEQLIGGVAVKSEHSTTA
Described as above.

These are yes or no findings as the source states them, for the method shown. In cells and extracts the contact can be indirect. A yes stands for co-enrichment or nearness to the bait. Other partners may have been found.

For the molecule Hsp70, the binding result in test [1] and in test [2] was “binds” in each case.

As to “Med12 (encoded by kohtalo or kto) (from UniProt Q9VW47 1-2531)”, the binding entry in test [1] and in test [2] was “binds” throughout.

Regarding “Med13 (encoded by skuld or skd) (from UniProt Q7KTX8 1-2618)”, the binding entry in test [1] and in test [2] was “binds” in each case.

Consider Smrter (Smr), for which the binding result in test [1] and in test [2] was “binds” in each case.

On to Taiman, for which the binding result in test [1] and in test [2] was “binds” in each case.

In the case of Utx, the binding entry in test [1] and in test [2] was “binds” in each case.

Take “cyclin-dependent kinase 8 (CDK8) (from UniProt Q9VT57 1-454) (enzyme)”: the binding result in test [1] and in test [2] was “binds” throughout.

B1: Rigor mortis (Rig) (protein, UniProt Q86BY9 1-1235)
chain: MNSQVMYHNVPTPPGNVSLAAAAPDGGLLYAGIRCINYISAPPANGEQPQVVTMSTRINILALDVSPMWGLGNGGPTKPFAIVGDDLSVQVWDCALGEAVIGHKAHQHQHEARDVRVVHHTTNSVLMSYLANGNILSMDASDLVIYCVASNTYCRRSTFISPRNHQLTMVRCSPYNDNLFAVGTAMGNVLVCDLRKMNIVYKFHGHKAPICGLAWREVPAAEDEKTNNLALSAEEWRSRNGGQEEKPKTKPPPLTKSKAAESDDPFDIYNFDHLEYEFGAPIAERRRKSSEDCGGEFVGLEKPAGAAVLDFVEACESVKAELLASRQEDKTQHVEVTLHDCEPTKPTGPLSDASTISNKNDASDSTEGSLEVIQYSSSSDDAVIVDGEAAKPKREVLHHIYHQAEVHASGTPQTKSEPQSNLQVVPAISAETISLTSVNSTHLETLLVSIDGDEVMMIWNTNTGAHAGKNYSKSKTAGKLNNVYWLNNHVIVSLSRHQLFFWSVEFERKMLRYKISKDKSHSCHLQDIVSFACDSSKEMIWLCRNNRQIGMMNPKTGRMADFYGTVAFGVRAMAECPDDMNKIALGCSDRRVAFFDISKLTTSCLPIDSVYVSSNVYCLAWSPNCLELAFGTFDGTVGILDVERMKVKTHLRTPHKKEVYSLVWQDHFIYFIVNRVLGFFDLRKSKIEPTIVNCISRPSYLSIRDSFLFVGTDDGLLQIHERDSGMEKSWSPFIRQSALFARYVTDIAWCPLDSNKFAVSGNDRSVYVMEFQPTERNWKTLHTFTANTEKASITSMRWSHTQKHLLLTFHIEGKVCLWNCNAPEKPPLTITYHCPMWCGMFLPTNENIIMCSGKALSVELIDIKDALEGDEKSICPKVDALLNVKWASKSLTQPYAPVLTAAEKKRQRRDQRKAAAKLEVDVANKDQKKIQESVTAVIDNPTNDKCTQETPVEEMLEALSLDKEQNNRSAKECPKCKEQSPDSFTHSRTCLYLTQKELNKSALEKLAIVLTEDSAKIDKSVLISKLFSSKVMAKELIATELTNLKHSNTKDIAPLCLAMSTFKLREELEQHIANKTLTERHVSLAPSVSFTLWQDCCRAYAKQMEEKGYIMHAATYLFSQGMQSEAIKLFLANEYYKEALVHARICLPATDPLIKTVINNWLEHLEGTGNFAAAALICVLDNEMLRGYSYLRKYRNCTPEIADLMDQIKRIGQLGGVLDGCAPNEPIHNGSTAEH
For the molecule B1, the binding result in test [1] and in test [2] was “binds” throughout.

B2: Cyclin C (CycC) (protein, UniProt P25008 1-267)
chain: MAGNFWQSSHSQQWILDKPDLLRERQHDLLALNEDEYQKVFIFFANVIQVLGEQLKLRQQVIATATVYFKRFYARNSLKNIDPLLLAPTCILLASKVEEFGVISNSRLISICQSAIKTKFSYAYAQEFPYRTNHILECEFYLLENLDCCLIVYQPYRPLLQLVQDMGQEDQLLTLSWRIVNDSLRTDVCLLYPPYQIAIACLQIACVILQKDATKQWFAELNVDLDKVQEIVRAIVNLYELWKDWKEKDEIQMLLSKIPKPKPPPQR
Regarding B2, the binding result in test [1] and in test [2] was “binds” each time.
